This note sets out measurements from article PMC4215638, “J-147 a Novel Hydrazide Lead Compound to Treat Neurodegeneration: CeeTox™ Safety and Genotoxicity Analysis” (Journal of neurology & neurophysiology, 2013).

Molecules are shown by their SMILES.

The subject of this data set is rat hepatoma (H4IIE) cell line. As to the kind of experiment: CTox ranking (CeeTox proprietary algorithm from TC50 values). In kind it is cell-based. Conditions: CTox 90 μM versus neurotrophism EC50 0.025 μM.

On to `COc1cccc(/C=N/N(C(=O)C(F)(F)F)c2ccc(C)cc2C)c1` [J-147, (E)-N-(2,4-Dimethylphenyl)-2,2,2-trifluoro-N′-(3-methoxybenzylidene) acetohydrazide], for which the neurotrophism/toxicity ratio turned out to be 3600.
